PubChem BioAssay AID1159578 – Peter MacCallum Cancer Centre | 2015
Aim: 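Genome-wide hunt for genes controlling movement of lymphatic endothelial cells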 (primary screen). System: human lymphatic endothelial cells. Reagent: siRNA pool against human genes, 40 nM. Time to read-out: 48 h after transfection. Read-out: 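Cells stained with dye and imaged after a scratch; covered wound area and nuclei counted, duplicates averaged, migration set against mock wells and turned into a robust z-score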. Direction: migration robust z-score: higher = faster migration into the scratch; migration relative to mock: higher = more scratch area covered than mock; nuclei per well: higher = more cells in the well. Active means: 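Migration changed when robust z exceeds 2 or falls below -2 and mean nuclei number is at least 3300; otherwise not called changed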. Calls: active = migration changed; inactive = no migration change, or too few cells.
In all, the deposit lists about 18,000 reagents; this is a part drawn at random. Of all reagents, about 1,030 (5.7%) got an active call. 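Inactive calls also include pools with fewer than 3300 nuclei, whose migration was not assessed.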 The raw values are shown without normalisation. Unmarked entries are inactive.

| target gene | migration robust z-score | migration class with cell-count check | migration relative to mock | nuclei per well, duplicate mean |
| --- | --- | --- | --- | --- |
| OR6Q1 (olfactory receptor family 6 subfamily Q member 1) | -2.08 (active) | migration z below -2; enough cells | 0.34 | 5302 |
| TAS2R9 (taste 2 receptor member 9) | -1.4 | migration z between -2 and 2; enough cells | 0.52 | 6274 |
| RAB6D (RAB6D, member RAS oncogene family) | -0.51 | migration z between -2 and 2; enough cells | 0.75 | 5530 |
| IL2RB (interleukin 2 receptor subunit beta) | 0.96 | migration z between -2 and 2; enough cells | 0.99 | 5502 |
| GH1 (growth hormone 1) | -2.24 (active) | migration z below -2; enough cells | 0.3 | 5006 |
| SON (SON DNA and RNA binding protein) | -2.19 (active) | migration z below -2; enough cells | 0.32 | 4094 |
| SIAE (sialic acid acetylesterase) | -0.88 | migration z between -2 and 2; enough cells | 0.66 | 5972 |
| SOCS4 (suppressor of cytokine signaling 4) | 0.31 | migration z between -2 and 2; enough cells | 0.87 | 5444 |
| CCL13 (C-C motif chemokine ligand 13) | -1.82 | migration z between -2 and 2; enough cells | 0.46 | 5070 |
| LILRB4 (leukocyte immunoglobulin like receptor B4) | -1.2 | migration z between -2 and 2; enough cells | 0.57 | 5449 |
| DNPH1 (2'-deoxynucleoside 5'-phosphate N-hydrolase 1) | 1.56 | migration z between -2 and 2; enough cells | 1.1 | 5233 |
| HDGFL1 (HDGF like 1) | 1.56 | migration z between -2 and 2; enough cells | 1.29 | 6152 |
| CEP70 (centrosomal protein 70) | -1.63 | under 3300 nuclei; migration not judged | 0.47 | 3223 |
| MYT1 (myelin transcription factor 1) | 0.52 | migration z between -2 and 2; enough cells | 0.9 | 3968 |
| UPP2 (uridine phosphorylase 2) | 1.12 | migration z between -2 and 2; enough cells | 1.02 | 6050 |
| SAMD12 (sterile alpha motif domain containing 12) | 1 | migration z between -2 and 2; enough cells | 1.15 | 5542 |
| GBP6 (guanylate binding protein family member 6) | -0.31 | migration z between -2 and 2; enough cells | 0.8 | 6464 |
| TRMT10A (tRNA methyltransferase 10A) | -0.2 | migration z between -2 and 2; enough cells | 0.84 | 6468 |
| FAM13C (family with sequence similarity 13 member C) | 0.58 | migration z between -2 and 2; enough cells | 1.04 | 5800 |
| BICC1 (BicC family RNA binding protein 1) | 0.45 | migration z between -2 and 2; enough cells | 1.01 | 6348 |
| COA5 (cytochrome c oxidase assembly factor 5) | -0.27 | migration z between -2 and 2; enough cells | 0.82 | 5152 |
| LDLRAD4 (low density lipoprotein receptor class A domain containing 4) | -0.62 | migration z between -2 and 2; enough cells | 0.72 | 5834 |
| FASLG (Fas ligand) | -0.6 | migration z between -2 and 2; enough cells | 0.74 | 4753 |
| SCNN1A (sodium channel epithelial 1 subunit alpha) | 0.72 | migration z between -2 and 2; enough cells | 0.94 | 6012 |
| DNMT3B (DNA methyltransferase 3 beta) | -1.84 | migration z between -2 and 2; enough cells | 0.45 | 5634 |
| DGKB (diacylglycerol kinase beta) | 0.18 | migration z between -2 and 2; enough cells | 0.84 | 7390 |
| GCC2 (GRIP and coiled-coil domain containing 2) | -2.05 (active) | migration z below -2; enough cells | 0.35 | 5965 |
| ADAM21 (ADAM metallopeptidase domain 21) | 1.92 | migration z between -2 and 2; enough cells | 1.17 | 5320 |
| PABPN1L (PABPN1 like, cytoplasmic) | -1.08 | migration z between -2 and 2; enough cells | 0.6 | 4319 |
| PPM1N (protein phosphatase, Mg2+/Mn2+ dependent 1N (putative)) | -0.64 | migration z between -2 and 2; enough cells | 0.72 | 7901 |
| SLC60A2 | 3 (active) | migration z above 2; enough cells | 1.66 | 7042 |
| FCSK (fucose kinase) | -1.4 | migration z between -2 and 2; enough cells | 0.53 | 5651 |
| MALSU1 (mitochondrial assembly of ribosomal large subunit 1) | -0.48 | migration z between -2 and 2; enough cells | 0.76 | 7404 |
| KCNMA1 (potassium calcium-activated channel subfamily M alpha 1) | 0.28 | migration z between -2 and 2; enough cells | 0.86 | 4922 |
| SERTAD2 (SERTA domain containing 2) | -0.7 | migration z between -2 and 2; enough cells | 0.67 | 5038 |
| FANCL (FA complementation group L) | 1.16 | migration z between -2 and 2; enough cells | 1.19 | 6828 |
| SRM (spermidine synthase) | -2.05 (active) | migration z below -2; enough cells | 0.41 | 5080 |
| LEAP2 (liver enriched antimicrobial peptide 2) | -1.77 | migration z between -2 and 2; enough cells | 0.43 | 5392 |
| KCNAB1 | -1.15 | migration z between -2 and 2; enough cells | 0.58 | 4476 |
| MYOZ2 (myozenin 2) | 1.35 | migration z between -2 and 2; enough cells | 1.23 | 5296 |
| NMRAL1 (NmrA like redox sensor 1) | -1.8 | migration z between -2 and 2; enough cells | 0.42 | 3944 |
| TMEM120A (transmembrane protein 120A) | -0.82 | migration z between -2 and 2; enough cells | 0.68 | 5832 |
| MLH1 (mutL homolog 1) | 0.34 | migration z between -2 and 2; enough cells | 0.87 | 6044 |
| BTG1 (BTG anti-proliferation factor 1) | 0.21 | migration z between -2 and 2; enough cells | 0.84 | 5702 |
| WDR49 (WD repeat domain 49) | 0.09 | migration z between -2 and 2; enough cells | 0.91 | 5750 |
| USP6NL (USP6 N-terminal like) | -1.25 | migration z between -2 and 2; enough cells | 0.56 | 5224 |
| P2RY11 (purinergic receptor P2Y11) | 1.35 | migration z between -2 and 2; enough cells | 1.06 | 5970 |
| C10orf55 (chromosome 10 putative open reading frame 55) | 0.38 | migration z between -2 and 2; enough cells | 0.99 | 6371 |
| TMEM54 (transmembrane protein 54) | 0.21 | migration z between -2 and 2; enough cells | 0.94 | 6205 |
| SLC44A1 | -1.48 | migration z between -2 and 2; enough cells | 0.52 | 4246 |
| GALM (galactose mutarotase) | 0.36 | migration z between -2 and 2; enough cells | 0.88 | 7214 |
| SPEN (spen family transcriptional repressor) | 0.34 | migration z between -2 and 2; enough cells | 0.87 | 5358 |
| NADSYN1 (NAD synthetase 1) | -0.62 | migration z between -2 and 2; enough cells | 0.68 | 5392 |
| NKAPL (NFKB activating protein like) | -1.12 | migration z between -2 and 2; enough cells | 0.6 | 5528 |
| LRTM2 (leucine rich repeat transmembrane protein 2) | 1.51 | migration z between -2 and 2; enough cells | 1.27 | 5694 |
| ULBP1 (UL16 binding protein 1) | 0.76 | migration z between -2 and 2; enough cells | 1.08 | 5388 |
| ANXA5 (annexin A5) | -0.18 | migration z between -2 and 2; enough cells | 0.84 | 5486 |
